Measurements taken from the supplement of paper PMC6078165.

Tested on: HCC1143
Assay: relative JC-1 red fluorescence (viability) vs pre-drug, coculture with fibroblast (fraction); higher = more viable cancer cells
Experimental: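 JC-1 labelled TNBC cells cocultured 1:1 (1,500 cells each) with CellTrace Violet stained primary or stromal fibroblasts in 384-well plates in FluoroBrite medium, treated with one of 42 anticancer drugs at 0.1, 1, 10 or 100 uM. JC-1 red fluorescence (mitochondrial integrity in cancer cells only) was read by plate reader every 8 h for 72 h. Values are normalised to each well's pre-drug value. The stock of one drug was tenfold lower, so its dose labels may be too high.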

CO[C@H]1C[C@@H]2CC[C@@H](C)[C@@](O)(O2)C(=O)C(=O)N2CCCC[C@H]2C(=O)O[C@H]([C@H](C)C[C@@H]2CC[C@@H](OCCO)[C@H](OC)C2)CC(=O)[C@H](C)/C=C(\C)[C@@H](O)[C@@H](OC)C(=O)[C@H](C)C[C@H](C)/C=C/C=C/C=C/1C [Everolimus]
relative JC-1 red fluorescence
Conditions	8 h	16 h	24 h	32 h	40 h	48 h	56 h	64 h	72 h
0.1 µM, coculture fibroblast: C12385	0.8324	0.718	0.6593	0.586	0.525	0.48	0.441	0.41	0.394
0.1 µM, coculture fibroblast: H6013	0.719	0.621	0.578	0.56	0.5	0.49	0.458	0.447	0.422
0.1 µM, coculture fibroblast: H6019	0.7622	0.671	0.61	0.558	0.519	0.497	0.463	0.432	0.415
0.1 µM, coculture fibroblast: H6076	0.769	0.8239	0.731	0.649	0.614	0.579	0.535	0.509	0.52
0.1 µM, coculture fibroblast: H6231	0.828	0.828	0.733	0.637	0.6	0.572	0.533	0.497	0.484
0.1 µM, coculture fibroblast: HADF	0.737	0.6844	0.6551	0.6451	0.554	0.537	0.495	0.477	0.455
0.1 µM, coculture fibroblast: HCFa	0.7915	0.7	0.652	0.636	0.563	0.551	0.51	0.477	0.4456
0.1 µM, coculture fibroblast: HCPF	0.809	0.7608	0.703	0.642	0.6076	0.5841	0.54391	0.5181	0.5081
0.1 µM, coculture fibroblast: HHSteC	0.81	0.743	0.698	0.665	0.584	0.563	0.521	0.492	0.451
0.1 µM, coculture fibroblast: HMF	0.802	0.821	0.747	0.682	0.652	0.624	0.589	0.559	0.545
0.1 µM, coculture fibroblast: HPFa	0.8947	0.799	0.758	0.663	0.597	0.586	0.544	0.513	0.489
0.1 µM, coculture fibroblast: HUF	0.868	0.791	0.739	0.658	0.611	0.593	0.552	0.522	0.502
0.1 µM, coculture fibroblast: Hs5	0.82752	0.859	0.7937	0.7466	0.6828	0.629	0.587	0.552	0.551
0.1 µM, coculture fibroblast: Hs27A	0.6768	0.5696	0.52844	0.5502	0.425	0.405	0.372	0.352	0.359
0.1 µM, coculture fibroblast: Hs343T	0.813	0.8691	0.824	0.75	0.728	0.695	0.653	0.624	0.595
0.1 µM, coculture fibroblast: WS1	0.825	0.752	0.691	0.595	0.522	0.48	0.447	0.416	0.397
1 µM, coculture fibroblast: C12385	0.84315	0.784	0.724	0.67	0.618	0.602	0.581	0.562	0.561
1 µM, coculture fibroblast: H6013	0.796	0.75	0.752	0.749	0.701	0.71	0.676	0.668	0.622
1 µM, coculture fibroblast: H6019	0.812	0.724	0.6612	0.60257	0.5717	0.561	0.528	0.498	0.489
1 µM, coculture fibroblast: H6076	0.807	0.8182	0.775	0.736	0.688	0.675	0.643	0.625	0.638
1 µM, coculture fibroblast: H6231	0.795	0.806	0.723	0.623	0.623	0.596	0.557	0.526	0.51
1 µM, coculture fibroblast: HADF	0.756	0.684	0.646	0.652	0.539	0.504	0.471	0.448	0.445
1 µM, coculture fibroblast: HCFa	0.796	0.6986	0.667	0.652	0.571	0.547	0.495	0.452	0.409
1 µM, coculture fibroblast: HCPF	0.8066	0.771	0.728	0.694	0.6393	0.607	0.563	0.534	0.526
1 µM, coculture fibroblast: HHSteC	0.842	0.772	0.7441	0.72288	0.6512	0.627	0.579	0.547	0.509
1 µM, coculture fibroblast: HMF	0.767	0.824	0.736	0.621	0.612	0.577	0.521	0.491	0.466
1 µM, coculture fibroblast: HPFa	0.915	0.828	0.783	0.705	0.626	0.599	0.558	0.525	0.5
1 µM, coculture fibroblast: HUF	0.905	0.83137	0.778	0.708	0.655	0.635	0.585	0.559	0.538
1 µM, coculture fibroblast: Hs5	0.8335	0.886	0.8278	0.764	0.701	0.663	0.626	0.591	0.569
1 µM, coculture fibroblast: Hs27A	0.7392	0.685	0.6616	0.681	0.6	0.605	0.572	0.566	0.531
1 µM, coculture fibroblast: Hs343T	0.7724	0.825	0.751	0.642	0.6155	0.568	0.51	0.484	0.454
1 µM, coculture fibroblast: WS1	0.8074	0.72665	0.6513	0.5814	0.5222	0.4987	0.456	0.429	0.421
10 µM, coculture fibroblast: C12385	0.8835	0.8432	0.786	0.721	0.67	0.6411	0.613	0.581	0.5617
10 µM, coculture fibroblast: H6013	0.772	0.733	0.722	0.734	0.661	0.657	0.625	0.618	0.625
10 µM, coculture fibroblast: H6019	0.8566	0.8035	0.772	0.72	0.677	0.664	0.634	0.601	0.582
10 µM, coculture fibroblast: H6076	0.815	0.952	0.94	0.8549	0.847	0.8162	0.766	0.732	0.7484
10 µM, coculture fibroblast: H6231	0.8058	0.923	0.91	0.786	0.832	0.815	0.774	0.734	0.731
10 µM, coculture fibroblast: HADF	0.734	0.706	0.69	0.722	0.614	0.591	0.568	0.549	0.598
10 µM, coculture fibroblast: HCFa	0.801	0.773	0.765	0.769	0.666	0.648	0.611	0.578	0.572
10 µM, coculture fibroblast: HCPF	0.829	0.917	0.903	0.8	0.84	0.809	0.776	0.735	0.733
10 µM, coculture fibroblast: HHSteC	0.851	0.8328	0.8241	0.8026	0.712	0.687	0.639	0.605	0.582
10 µM, coculture fibroblast: HMF	0.789	0.932	0.896	0.769	0.7865	0.742	0.697	0.663	0.63
10 µM, coculture fibroblast: HPFa	0.949	0.896	0.846	0.753	0.694	0.675	0.636	0.598	0.576
10 µM, coculture fibroblast: HUF	0.897	0.85	0.811	0.751	0.712	0.684	0.648	0.622	0.6
10 µM, coculture fibroblast: Hs5	0.872	0.82	0.959	0.915	0.846	0.802	0.762	0.722	0.717
10 µM, coculture fibroblast: Hs27A	0.714	0.661	0.626	0.673	0.536	0.514	0.488	0.469	0.51
10 µM, coculture fibroblast: Hs343T	0.862	0.87	0.872	0.882	0.893	0.852	0.807	0.779	0.749
10 µM, coculture fibroblast: WS1	0.8783	0.8164	0.759	0.68	0.63	0.587	0.551	0.522	0.494
100 µM, coculture fibroblast: C12385	0.689	0.585	0.458	0.312	0.227	0.185	0.154	0.156	0.164
100 µM, coculture fibroblast: H6013	0.6948	0.6767	0.557	0.49	0.391	0.353	0.317	0.316	0.265
100 µM, coculture fibroblast: H6019	0.863	0.865	0.805	0.607	0.484	0.414	0.342	0.306	0.32
100 µM, coculture fibroblast: H6076	0.65	0.73	0.397	0.329	0.244	0.26	0.264	0.264	0.29
100 µM, coculture fibroblast: H6231	0.635	0.796	0.834	0.721	0.669	0.667	0.627	0.59	0.571
100 µM, coculture fibroblast: HADF	0.6384	0.603	0.541	0.447	0.307	0.26	0.24	0.218	0.176
100 µM, coculture fibroblast: HCFa	0.736	0.739	0.655	0.574	0.449	0.398	0.365	0.357	0.311
100 µM, coculture fibroblast: HCPF	0.685	0.814	0.779	0.565	0.533	0.497	0.439	0.398	0.394
100 µM, coculture fibroblast: HHSteC	0.697	0.646	0.516	0.441	0.366	0.376	0.387	0.399	0.336
100 µM, coculture fibroblast: HMF	0.674	0.832	0.452	0.317	0.217	0.219	0.222	0.227	0.236
100 µM, coculture fibroblast: HPFa	0.801	0.702	0.502	0.457	0.327	0.3039	0.284	0.309	0.319
100 µM, coculture fibroblast: HUF	0.829	0.787	0.713	0.646	0.638	0.606	0.568	0.526	0.482
100 µM, coculture fibroblast: Hs5	0.651	0.551	0.425	0.411	0.341	0.361	0.373	0.367	0.39
100 µM, coculture fibroblast: Hs27A	0.635	0.666	0.656	0.701	0.5242	0.494	0.426	0.38	0.319
100 µM, coculture fibroblast: Hs343T	0.655	0.776	0.465	0.392	0.283	0.298	0.305	0.316	0.327
100 µM, coculture fibroblast: WS1	0.718	0.651	0.563	0.385	0.293	0.248	0.211	0.222	0.24

The reference is the same well before dosing, and untreated signal decays as well.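 Fibroblast labels name human fibroblasts: mostly primary ones from tissues such as uterus (C12385, HUF), lung (H6013), bone (Hs27A), adrenal (HADF) and skin (WS1), plus mammary HMF and breast cancer-associated Hs343T. The cancer cells are basal-like or mesenchymal-like triple-negative breast cancer lines. The paper calls a changed response a hit when it shifts by more than 3x the replicate standard deviation. The tissue of the other fibroblasts is not given here.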
